Results are given in words; binding and its absence hold for the method and conditions named. Some entries that bind do so weakly or less than the wild type.
Legend:
Experiment in all cases: SPR
[1] = molecular target: recombinant wild-type human C3 (human) (UniProt P01024)
[2] = molecular target: human complement C3 (human) (UniProt P01024)
[3] = molecular target: human C3 P314L (human) (UniProt P01024)

By UniProt entry, the sequences of proteins in these tests, tags left out. Where a name states a change or a piece, a line headed by the entry shows the natural chain unless it says otherwise.
UniProt P01024: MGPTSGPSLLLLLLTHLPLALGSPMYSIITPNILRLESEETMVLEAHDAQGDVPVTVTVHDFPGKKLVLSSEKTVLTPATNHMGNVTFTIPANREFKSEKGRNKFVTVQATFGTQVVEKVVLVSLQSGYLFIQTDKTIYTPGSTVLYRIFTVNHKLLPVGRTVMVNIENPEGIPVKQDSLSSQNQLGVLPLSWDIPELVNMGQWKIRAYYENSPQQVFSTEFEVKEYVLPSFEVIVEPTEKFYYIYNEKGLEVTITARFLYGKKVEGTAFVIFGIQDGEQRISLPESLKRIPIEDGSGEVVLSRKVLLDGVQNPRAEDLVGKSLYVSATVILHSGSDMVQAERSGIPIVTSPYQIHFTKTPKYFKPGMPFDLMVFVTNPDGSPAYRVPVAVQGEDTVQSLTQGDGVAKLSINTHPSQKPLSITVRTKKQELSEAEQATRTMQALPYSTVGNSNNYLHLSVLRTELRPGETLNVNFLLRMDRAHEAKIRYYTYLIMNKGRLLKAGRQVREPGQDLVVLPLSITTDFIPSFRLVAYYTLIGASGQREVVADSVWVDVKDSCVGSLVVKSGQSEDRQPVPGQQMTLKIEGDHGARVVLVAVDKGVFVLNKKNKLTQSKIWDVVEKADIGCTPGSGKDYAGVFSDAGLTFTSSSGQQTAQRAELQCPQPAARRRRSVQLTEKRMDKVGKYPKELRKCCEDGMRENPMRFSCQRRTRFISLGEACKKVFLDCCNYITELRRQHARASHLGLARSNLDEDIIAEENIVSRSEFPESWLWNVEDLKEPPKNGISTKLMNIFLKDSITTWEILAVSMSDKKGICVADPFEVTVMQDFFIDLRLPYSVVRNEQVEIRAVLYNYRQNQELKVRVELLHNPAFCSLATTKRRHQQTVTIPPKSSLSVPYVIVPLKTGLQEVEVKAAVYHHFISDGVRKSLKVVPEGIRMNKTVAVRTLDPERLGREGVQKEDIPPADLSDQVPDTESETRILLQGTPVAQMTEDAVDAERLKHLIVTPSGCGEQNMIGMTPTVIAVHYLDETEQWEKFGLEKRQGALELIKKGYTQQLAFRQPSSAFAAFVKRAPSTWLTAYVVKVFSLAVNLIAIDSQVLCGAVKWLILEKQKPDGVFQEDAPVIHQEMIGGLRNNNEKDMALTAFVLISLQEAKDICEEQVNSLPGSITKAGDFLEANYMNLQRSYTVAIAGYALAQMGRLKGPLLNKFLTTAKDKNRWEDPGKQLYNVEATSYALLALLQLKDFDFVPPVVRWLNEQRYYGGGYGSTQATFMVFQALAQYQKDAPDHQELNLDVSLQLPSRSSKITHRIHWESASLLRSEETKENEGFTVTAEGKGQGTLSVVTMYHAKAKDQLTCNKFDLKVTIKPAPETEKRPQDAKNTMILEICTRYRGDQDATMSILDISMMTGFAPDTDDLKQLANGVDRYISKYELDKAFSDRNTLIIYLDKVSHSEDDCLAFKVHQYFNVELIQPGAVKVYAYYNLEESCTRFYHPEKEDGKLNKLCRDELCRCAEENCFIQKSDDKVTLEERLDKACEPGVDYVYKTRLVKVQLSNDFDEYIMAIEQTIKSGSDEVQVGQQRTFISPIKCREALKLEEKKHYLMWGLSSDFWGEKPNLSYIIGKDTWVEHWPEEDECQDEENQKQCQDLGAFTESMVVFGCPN

Measured: binding

B1: Clone I (scFv)
scFv: MQLVLTQSPSASASLGASVKLTCTLSSAHKTYTIDWYQQQPEKCPRYLMQLKSDGSYTKGSGIPDRFSGSSSGAERYLTISSLQSEDEADYYCGTEGVGGYVFGGGTKLTVLGGGGGSGGGGSGGGGSGGGGSQVQLVESGGGSVQPGRSLRLSCAASGFTFSNYAMNWVRQAPGKGLEWVAVISYDGSNKYYADSVKGRFTISRDNSKNTLYLQMNSLRAEDTASYYCARAVGYHHARLDPWGCGTSVTVSS
binds: [1] | [2] | [3]

B2: Clone II (scFv)
scFv: MQLVLTQSPSASASLGASVKLTCTLSSAHKTYTIDWYQQQPEKCPRYLMQLKSDGSYTKGSGIPDRFSGSSSGAERYLTISSLQSEDEADYYCGTEGVGGYVFGGGTKLTVLGGGGGSGGGGSGGGGSGGGGSQVQLVESGGGSVQPGRSLRLSCAASGFTFSNYAMNWVRQAPGKGLEWVAIINVGGGTNYADSVKGRFTISRDNSKNTLYLQMNSLRAEDTASYYCARAVGYHHARLDPWGCGTSVTVSS
binds: [1] | [2] | [3]

B3: Clone III (scFv)
scFv: MQLVLTQSPSASASLGASVKLTCTLSSAHKTYTIDWYQQQPEKCPRYLMQLKSEGSYTKGSGIPDRFSGSSSGAERYLTISSLQSEDEADYYCGTEGVGGYVFGGGTKLTVLGGGGGSGGGGSGGGGSGGGGSQVQLVESGGGSVQPGRSLRLSCAASGFTFSNYAMNWVRQAPGKGLEWVAIINVGGGTNYADSVKGRFTISRDNSKNTLYLQMNSLRAEDTASYYCARAVGYHHARLDPWGCGTSVTVSS
binds: [1] | [2] | [3]

Reference: patent US12344663
